Data as given in PubChem BioAssay AID504834 (National Center for Advancing Translational Sciences (NCATS), 2011).
Among all 320,000 compounds or so, about 22,000 (6.9%) were called active. This list was built around the results that the source calls inconclusive (neither active nor inactive); the mix of calls is not that of the screen. Calls follow the shape of the dose curve; as a rule, active = well fitted inhibition curve with a large enough effect; inconclusive = small, poorly fitted or top-dose-only effect, or another doubt; inactive = no such curve, though single readings can be large or run the other way. Potencies of inconclusive entries are doubtful fits and often do not repeat.

Assay: Primary qHTS for delayed death inhibitors of the malarial parasite plastid, 96 hour incubation
Conditions: P. falciparum luciferase reporter growth; series mostly up to 28.7 µM
Method in brief: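 Two parasite generations (96 h, 37 C, 5% CO2) of compound exposure in infected erythrocytes (0.05% parasitemia, 2% hematocrit). Luciferase-reporter P. falciparum; decreased luminescence indicates inhibited growth, aimed at apicoplast-acting delayed death.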
Potency is read from the fitted curve at half-maximal effect.

With `CN(C)c1ncc(S(=O)(=O)c2ccc(Cl)cc2)c(-c2ccc(Cl)cc2Cl)n1` as the compound, how does the Potency read?
Its Potency is inconclusive: 1.31 µM [inhibitor, full curve, poor fit].

With `O=C(COC(=O)CCC1CCCC1)Nc1ccc(F)cc1` as the compound, how does the Potency read?
The Potency was “inactive”.

Which Potency does the source give for `CCOc1cc(S(=O)(=O)NCc2ccco2)c(OCC)cc1-n1cnnn1` here?
Its Potency is inconclusive: 5.86 µM [inhibitor, partial curve, poor fit].

Which Potency does the source give for `O=C(CN1CCN(c2ccccc2)CC1)NC(=O)NCc1ccccc1` here?
The Potency was inconclusive: 14.7 µM [inhibitor, partial curve, poor fit].

With `Cc1ccccc1C(=O)N1CCC(n2nccc2NC(=O)CCOc2ccccc2)CC1` as the compound, how does the Potency read?
Its Potency is inconclusive: 11.7 µM [inhibitor, single point].

With `CN(C)CCCOC(=O)COc1ccc(C(C)(C)C)cc1` as the compound, how does the Potency read?
Its Potency is “inactive”.

With `NC(=O)Nc1ccc(C(=O)OCC(=O)NC2CCCCC2)cc1` as the compound, how does the Potency read?
The Potency was “inactive”.

Which Potency does the source give for `O=C(O)c1nccnc1C(=O)Nc1ccc(Cl)cn1` here?
The Potency was “inactive”.

For `COc1cc(CN2CCC(C(=O)NC3CCCC3)CC2)cc(OC)c1O`, which Potency is on record?
The Potency was inconclusive: 11.7 µM [inhibitor, single point].

For `Cc1cc(NC(=O)NCC(F)(F)F)no1`, which Potency is on record?
The Potency was “inactive”.

For `Cc1ccc(CSCC(=O)N(C)CC(=O)Nc2cccc(F)c2)cc1`, which Potency is on record?
The Potency was inconclusive: 10.4 µM [inhibitor, single point].

Which Potency does the source give for `Cc1cc(C)nc(/N=C2\NC(=O)CC(C(=O)O)N2c2ccc(C)c(C)c2)n1` (stereo not given) here?
The Potency was inconclusive: 5.22 µM [inhibitor, partial curve].

For `C=C(C)C(=O)Nc1cccc(C2=NOC3(C2)C[C@H](C(N)=O)N(C(=O)C(c2ccccc2)c2ccccc2)C3)c1` (stereo not given in full), which Potency is on record?
The Potency was inconclusive: 18.5 µM [inhibitor, single point].

Which Potency does the source give for `Brc1ccccc1OCCCCn1cnc2ccccc21` here?
The Potency was inconclusive: 0.37 µM [inhibitor, full curve, poor fit].

Which Potency does the source give for `COc1ccc(NC(=O)c2nc[nH]c2C(=O)N(C)Cc2ccccc2)cc1` here?
The Potency was “inactive”.

Which Potency does the source give for `O=C(Oc1ccccc1)N(c1ccccc1)c1ccccc1` here?
Its Potency is inconclusive: 8.28 µM [inhibitor, partial curve].

With `O=C(NCc1nnnn1-c1ccc(F)c(F)c1)C(=O)c1c[nH]c2ccccc12` as the compound, how does the Potency read?
Its Potency is inconclusive: 4.15 µM [inhibitor, partial curve, poor fit].

With `CCOC(=O)C1(CCc2ccccc2)CCN(C(=O)CCn2cncn2)CC1` as the compound, how does the Potency read?
Its Potency is inconclusive: 18.5 µM [inhibitor, single point].

Which Potency does the source give for `COc1ccc(CNc2ncnc3sccc23)cc1OC` here?
Its Potency is “inactive”.

With `CC1(C)CC(=O)C2=C(C1)N(Cc1ccccc1)C(=O)C2(NC(=O)C(C)(C)C)C(F)(F)F` (stereo not given) as the compound, how does the Potency read?
The Potency was inconclusive: 9.28 µM [inhibitor, partial curve].
